# Test results taken from PubChem BioAssay AID2685 (National Center for Advancing Translational Sciences (NCATS), 2010).
# About 2,100 (0.66%) of roughly 320,000 compounds were called active. The inconclusive results got no clear call from the source; some entries with a clear call stand among them for comparison. Calls come from the whole dose curve; as a rule, active = well fitted inhibition curve with a large enough effect in the signal ratio, with a control signal flat (not every such curve was filed as active); inconclusive = small, poorly fitted or top-dose-only effect, or effect the other way, or a change in a side signal; inactive = flat fitted curve, though single readings scatter; the % refers to the signal ratio. Potencies of inconclusive entries are doubtful fits and often do not repeat.
# Assay: qHTS Assay for Lipid Storage Modulators in Drosophila S3 Cells
# Conditions: BODIPY lipid droplet fluorescence, 18-24 h, cells fed with added oleic acid; lipid storage change, negative = inhibition: at 46.1 µM (top of the series) unless noted
# In short: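 Drosophila S3 cells loaded with oleic acid (400 uM, as added) and compounds at several concentrations; lipid droplets imaged by 488-nm laser-scanning cytometry, 500–530 nm intensity and object ratio to cell channel. Percent activity normalized to 20 uM Triacsin C.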
# % is set by controls: 0 for no effect and ±100 for the full control effect; potency is the fitted concentration of half-maximal effect.
Structure (SMILES),"lipid storage change, negative = inhibition",Potency
O=C(Nc1ccc(Cl)c(Cl)c1)Nc1ccc([N+](=O)[O-])cn1,inconclusive: -18.4%,
CCn1nc(C)c(NC(=O)c2ccc(Br)o2)c1C,inconclusive: 3.01%,
Cc1ccc(-c2ccc(CCC(=O)O)n2CC2CCCO2)cc1 (configuration not stated),inconclusive: -2.95%,
COc1ccc(CCN2C(=O)C3C4C=CC(C4)C3C2=O)cc1OC (configuration not stated),inconclusive: 8.18%,
C=CCn1c(SCc2ccc(C#N)cc2)nnc1-c1cccc(Cl)c1,,"inconclusive: 2.06 µM [rising, partial curve]"
O=C(NNS(=O)(=O)c1ccccc1[N+](=O)[O-])c1cccc(Br)c1,inconclusive: 87.3%,
COc1ccc(C(=O)Nc2ccc(S(=O)(=O)Nc3nccnc3OC)cc2)cc1,inconclusive: 70.5%,
Cc1oc(-c2cccc(Cl)c2)nc1CS(=O)(=O)CC(=O)NCCN1CCOCC1,inconclusive: 7.21%,
CCCSc1nc(=O)n2cc(C)ccc2n1,inconclusive: 19.2%,
CCN(CC)S(=O)(=O)c1cccc(NC(=O)CN2C(=O)NC3(CCC(C)CC3)C2=O)c1 (configuration not stated),inconclusive,
CC(=O)Nc1ccc(NC(=O)c2nc(S(=O)(=O)Cc3ccccc3)ncc2Cl)cc1,,"inconclusive: 6.51 µM [falling, partial curve, poor fit]"
Cc1ccc(C(=O)N/C(=C\c2ccc(-c3cccc([N+](=O)[O-])c3)o2)C(=O)NCCCN2CCOCC2)cc1,,"inconclusive: 20.6 µM [activator, partial curve]"
Cc1nc2ccccn2c1C(=O)NCCCN1CCOCC1,,"inconclusive: 0.164 µM [falling, partial curve, poor fit]"
Cc1cc(-c2ccccc2)nc(SCC(=O)N2CCCC2)n1,inconclusive: 45.7%,
CCOC(=O)Cc1csc(SCC(=O)Nc2ccc(C)cc2F)n1,inactive: 31.2%,
C=CCn1c(SCC(=O)Nc2ccc(C(=O)O)cc2)nc2sc(C)c(C)c2c1=O,inconclusive: 7.24%,
CCN(C(=O)c1nn(-c2ccc(OC)cc2)c(=O)c2c1c1ccccc1n2C)c1ccc(OC)cc1,inconclusive: -0.0617%,
CC(c1ccc2c(c1)OCO2)n1c(=S)[nH]c2ccccc2c1=O (configuration not stated),inconclusive: 10.2%,
COc1ccc(C(CNC(=O)CNC(=O)c2cccc(Cl)c2)N2CCCC2)cc1 (configuration not stated),,"inconclusive: 2.06 µM [activator, full curve]"
COc1ccc(Cl)cc1NS(=O)(=O)c1cccc(C(=O)NC2CCC(O)CC2)c1 (configuration not stated),inconclusive: 33.8%,
Cc1oc2c(c1C(=O)NCCO)CCCC2,inconclusive: -167%,
CC1CCN(CCNC(=O)C2CCCN(c3ncnc4c3nc3n4CCCCC3)C2)CC1 (configuration not stated),,"inconclusive: 18.4 µM [activator, partial curve]"

# 2 consecutive entries already listed, for reference:
Structure (SMILES),"lipid storage change, negative = inhibition",Potency
CCN(CC)S(=O)(=O)c1cccc(NC(=O)CN2C(=O)NC3(CCC(C)CC3)C2=O)c1 (configuration not stated),inconclusive,
CC(=O)Nc1ccc(NC(=O)c2nc(S(=O)(=O)Cc3ccccc3)ncc2Cl)cc1,,"inconclusive: 6.51 µM [falling, partial curve, poor fit]"
